These are yes or no findings as the source states them, for the method shown.
Biological target: MUC5B C-terminal recombinant peptide (AA5653-AA5762) (human) (UniProt Q9HC84)
Experiment: ELISA; C-terminal recombinant peptide coated on NUNC Maxisorp plate overnight at 4 °C, 20 μg/mL, carbonate-bicarbonate buffer pH 9.6; FLAG-ITLN-1 10 μg/mL for 2 hours in binding buffer A (TBS, 3 mM CaCl3, 1% BSA, 0.05% Tween-20); anti-FLAG HRP, absorbance 450 nm; also with heparin 150 μg/mL; both purified

By UniProt entry, the sequences of proteins in these tests, tags left out. Residues count along the entry.
UniProt Q9HC84, residues 5653-5762: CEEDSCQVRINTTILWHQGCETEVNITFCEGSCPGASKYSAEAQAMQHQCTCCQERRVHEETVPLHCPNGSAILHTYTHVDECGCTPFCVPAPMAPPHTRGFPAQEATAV
UniProt Q8WWA0, residues 19-298: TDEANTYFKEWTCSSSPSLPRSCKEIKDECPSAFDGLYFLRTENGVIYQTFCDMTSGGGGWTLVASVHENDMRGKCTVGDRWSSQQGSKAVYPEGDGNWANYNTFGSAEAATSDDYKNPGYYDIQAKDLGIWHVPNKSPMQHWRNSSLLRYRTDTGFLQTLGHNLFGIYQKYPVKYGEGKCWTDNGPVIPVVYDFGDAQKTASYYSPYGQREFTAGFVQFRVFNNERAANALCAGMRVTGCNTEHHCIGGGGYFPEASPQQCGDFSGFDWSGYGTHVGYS

binding: no binding (tested: 10μg/mL)
Substance: FLAG-tagged recombinant ITLN-1 (from UniProt Q8WWA0 19-298)

Source: PMC11082194, “A common polymorphism in the Intelectin-1 gene influences mucus plugging in severe asthma” (Nature Communications, 2024)
